Experimental data published in publication PMC11251085.
Results are given in words; binding and its absence hold for the method and conditions named. Binding seen in cells or lysates may run through a third protein. These calls come from enrichment with a bait or labelling near it, and not all partners need be listed.

Amino acid sequences for entries named in this document (tags omitted). A change or cut given only in a name is not applied to a line headed by its entry. Chains listed by the source or under a name are the forms on record and can include a tag or linker.
UniProt Q99873: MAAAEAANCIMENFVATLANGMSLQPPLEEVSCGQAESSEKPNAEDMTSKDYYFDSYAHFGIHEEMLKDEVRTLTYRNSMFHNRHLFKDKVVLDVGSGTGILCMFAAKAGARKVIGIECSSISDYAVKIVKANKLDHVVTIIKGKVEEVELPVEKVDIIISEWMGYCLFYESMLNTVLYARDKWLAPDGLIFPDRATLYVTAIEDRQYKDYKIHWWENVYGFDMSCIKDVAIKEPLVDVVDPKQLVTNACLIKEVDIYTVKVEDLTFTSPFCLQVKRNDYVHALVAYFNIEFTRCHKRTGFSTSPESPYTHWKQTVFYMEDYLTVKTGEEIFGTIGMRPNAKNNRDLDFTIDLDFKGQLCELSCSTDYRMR
UniProt Q93009: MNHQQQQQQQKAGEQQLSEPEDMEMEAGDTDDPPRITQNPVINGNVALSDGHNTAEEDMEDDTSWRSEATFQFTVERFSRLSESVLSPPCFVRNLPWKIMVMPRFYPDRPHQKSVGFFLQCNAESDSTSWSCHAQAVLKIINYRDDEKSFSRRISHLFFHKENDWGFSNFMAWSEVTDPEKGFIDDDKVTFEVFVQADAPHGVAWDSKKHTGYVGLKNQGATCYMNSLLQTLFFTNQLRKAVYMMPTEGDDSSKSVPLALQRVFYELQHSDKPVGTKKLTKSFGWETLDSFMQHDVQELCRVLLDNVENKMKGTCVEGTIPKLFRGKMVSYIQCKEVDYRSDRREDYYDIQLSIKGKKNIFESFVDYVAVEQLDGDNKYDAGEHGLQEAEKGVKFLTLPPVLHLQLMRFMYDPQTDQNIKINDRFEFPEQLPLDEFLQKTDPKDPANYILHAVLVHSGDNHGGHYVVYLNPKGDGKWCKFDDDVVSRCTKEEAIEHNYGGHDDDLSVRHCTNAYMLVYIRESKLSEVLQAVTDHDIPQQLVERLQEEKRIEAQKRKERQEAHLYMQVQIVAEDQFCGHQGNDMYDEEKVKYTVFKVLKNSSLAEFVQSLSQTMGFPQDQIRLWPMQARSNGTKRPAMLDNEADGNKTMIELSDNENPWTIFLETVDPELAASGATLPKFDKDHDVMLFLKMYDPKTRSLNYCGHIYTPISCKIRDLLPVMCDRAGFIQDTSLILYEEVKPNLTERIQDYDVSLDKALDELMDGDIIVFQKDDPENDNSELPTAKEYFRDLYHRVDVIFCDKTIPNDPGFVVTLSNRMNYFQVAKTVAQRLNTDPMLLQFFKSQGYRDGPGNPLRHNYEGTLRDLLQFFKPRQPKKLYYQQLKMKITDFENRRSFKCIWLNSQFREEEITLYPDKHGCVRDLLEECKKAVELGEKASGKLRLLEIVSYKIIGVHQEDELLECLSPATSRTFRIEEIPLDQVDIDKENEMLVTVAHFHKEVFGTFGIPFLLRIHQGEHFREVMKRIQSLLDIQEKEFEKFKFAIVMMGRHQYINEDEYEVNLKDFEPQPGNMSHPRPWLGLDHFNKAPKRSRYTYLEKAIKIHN
UniProt Q93008: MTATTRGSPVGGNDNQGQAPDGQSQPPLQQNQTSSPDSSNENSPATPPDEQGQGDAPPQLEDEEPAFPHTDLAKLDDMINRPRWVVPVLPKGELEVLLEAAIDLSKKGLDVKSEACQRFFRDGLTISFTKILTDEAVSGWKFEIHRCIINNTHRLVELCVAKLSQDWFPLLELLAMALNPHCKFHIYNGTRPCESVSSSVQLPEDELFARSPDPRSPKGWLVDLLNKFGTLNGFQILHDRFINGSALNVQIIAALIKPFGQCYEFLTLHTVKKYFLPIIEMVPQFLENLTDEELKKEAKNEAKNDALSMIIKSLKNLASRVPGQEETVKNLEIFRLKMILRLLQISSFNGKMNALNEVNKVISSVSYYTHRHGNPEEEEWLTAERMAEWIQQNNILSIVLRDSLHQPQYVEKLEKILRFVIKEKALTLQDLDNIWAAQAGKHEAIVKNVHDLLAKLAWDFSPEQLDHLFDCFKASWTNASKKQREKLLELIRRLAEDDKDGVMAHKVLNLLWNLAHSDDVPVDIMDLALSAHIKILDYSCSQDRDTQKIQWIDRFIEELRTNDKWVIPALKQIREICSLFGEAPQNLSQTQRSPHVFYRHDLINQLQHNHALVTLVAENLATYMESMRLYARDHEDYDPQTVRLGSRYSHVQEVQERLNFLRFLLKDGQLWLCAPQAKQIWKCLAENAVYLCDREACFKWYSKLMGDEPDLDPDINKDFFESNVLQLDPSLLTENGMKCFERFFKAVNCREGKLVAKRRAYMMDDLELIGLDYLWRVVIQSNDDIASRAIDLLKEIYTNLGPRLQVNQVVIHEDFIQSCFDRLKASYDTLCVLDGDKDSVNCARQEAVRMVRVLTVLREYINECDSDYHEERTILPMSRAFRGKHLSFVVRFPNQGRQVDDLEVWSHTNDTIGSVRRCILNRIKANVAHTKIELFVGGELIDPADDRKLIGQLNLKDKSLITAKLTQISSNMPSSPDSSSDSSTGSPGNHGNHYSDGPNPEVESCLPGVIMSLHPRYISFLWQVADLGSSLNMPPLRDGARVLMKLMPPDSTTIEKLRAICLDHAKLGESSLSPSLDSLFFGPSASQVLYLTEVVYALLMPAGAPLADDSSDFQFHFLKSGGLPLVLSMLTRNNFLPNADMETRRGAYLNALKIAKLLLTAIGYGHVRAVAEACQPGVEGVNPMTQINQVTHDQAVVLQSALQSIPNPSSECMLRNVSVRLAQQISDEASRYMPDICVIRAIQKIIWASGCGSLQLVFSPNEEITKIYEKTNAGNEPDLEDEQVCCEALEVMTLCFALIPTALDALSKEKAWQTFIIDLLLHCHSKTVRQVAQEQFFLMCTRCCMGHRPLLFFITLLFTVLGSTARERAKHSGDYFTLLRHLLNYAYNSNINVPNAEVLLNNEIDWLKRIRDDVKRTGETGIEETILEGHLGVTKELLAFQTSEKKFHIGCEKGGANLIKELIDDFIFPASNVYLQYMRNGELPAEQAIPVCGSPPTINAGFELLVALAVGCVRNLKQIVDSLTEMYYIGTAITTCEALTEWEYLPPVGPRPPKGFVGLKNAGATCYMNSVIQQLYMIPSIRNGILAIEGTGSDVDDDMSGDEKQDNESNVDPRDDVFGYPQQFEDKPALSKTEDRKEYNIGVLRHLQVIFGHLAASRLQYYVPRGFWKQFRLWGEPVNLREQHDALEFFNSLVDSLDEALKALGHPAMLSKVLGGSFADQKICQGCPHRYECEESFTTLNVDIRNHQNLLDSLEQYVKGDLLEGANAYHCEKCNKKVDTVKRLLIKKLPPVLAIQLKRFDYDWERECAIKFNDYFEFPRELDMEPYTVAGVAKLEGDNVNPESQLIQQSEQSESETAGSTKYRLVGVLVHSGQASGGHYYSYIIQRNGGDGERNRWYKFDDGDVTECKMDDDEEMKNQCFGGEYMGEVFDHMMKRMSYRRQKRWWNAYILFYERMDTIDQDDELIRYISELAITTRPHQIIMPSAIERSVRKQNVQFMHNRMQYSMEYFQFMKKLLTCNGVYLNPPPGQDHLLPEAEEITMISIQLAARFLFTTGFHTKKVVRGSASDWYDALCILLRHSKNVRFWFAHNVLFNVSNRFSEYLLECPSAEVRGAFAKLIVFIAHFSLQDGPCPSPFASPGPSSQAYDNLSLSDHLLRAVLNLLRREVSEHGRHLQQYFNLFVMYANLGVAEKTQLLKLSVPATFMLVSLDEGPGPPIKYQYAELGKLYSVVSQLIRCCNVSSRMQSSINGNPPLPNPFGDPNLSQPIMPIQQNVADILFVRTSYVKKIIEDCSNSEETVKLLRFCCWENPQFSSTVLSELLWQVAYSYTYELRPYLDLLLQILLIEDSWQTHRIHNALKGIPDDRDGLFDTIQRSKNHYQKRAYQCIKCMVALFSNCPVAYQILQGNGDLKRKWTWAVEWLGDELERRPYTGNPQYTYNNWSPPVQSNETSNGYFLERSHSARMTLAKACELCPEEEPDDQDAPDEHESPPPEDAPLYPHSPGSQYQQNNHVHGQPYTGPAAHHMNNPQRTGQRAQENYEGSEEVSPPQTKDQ
hnRNPA2B1 (P22626-2, form named): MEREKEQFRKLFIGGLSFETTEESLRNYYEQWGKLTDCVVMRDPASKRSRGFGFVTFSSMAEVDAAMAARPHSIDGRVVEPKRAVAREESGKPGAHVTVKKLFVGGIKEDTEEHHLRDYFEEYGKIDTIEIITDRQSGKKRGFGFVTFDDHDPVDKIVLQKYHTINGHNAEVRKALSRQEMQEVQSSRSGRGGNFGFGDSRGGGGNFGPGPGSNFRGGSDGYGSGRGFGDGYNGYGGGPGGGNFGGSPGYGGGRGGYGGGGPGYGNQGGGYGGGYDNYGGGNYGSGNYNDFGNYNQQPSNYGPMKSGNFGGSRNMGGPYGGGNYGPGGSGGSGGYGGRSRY

Target: 3×Flag-PRMT1 (UniProt Q99873)
Experiment: affinity purification with mass spectrometry; 3×Flag-PRMT1 complex purified from A549-Flag-PRMT1 cells via anti-Flag immunoaffinity chromatography, then mass spectrometry

| binding | Substance |
| --- | --- |
| binds | USP7 (from UniProt Q93009 1-1102) (enzyme) |
| binds | USP9X (from UniProt Q93008 1-2554) (enzyme) |
| binds | hnRNPA2B1 (from UniProt P22626-2 1-341) |
